{"sequences": {"note": "Protein sequences, listed by entry. Tags and fused reporters are not part of them.", "UniProt S7ZFE3": "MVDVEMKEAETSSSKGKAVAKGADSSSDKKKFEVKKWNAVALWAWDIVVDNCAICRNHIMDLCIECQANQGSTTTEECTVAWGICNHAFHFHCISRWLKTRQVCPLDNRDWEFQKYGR"}, "source": "paper PMC11750091", "molecules": {"B1": {"name": "PoSkp1 (protein, UniProt S7ZF79 1-160)", "chain": "MSSQITLTSSDGVDITFDRAVAERSILIKNMLEDLGDCGEAIPIPNVNEAVLKKVIEWCEHHKNDPVTAADDDDNRRKTTDIDEWDQKFMQVDQEMLFEIILAANYLDIKALLDVGCKTVANMIKGKSPEEIRKTFNIQNDFTPEEEDQIRRENEWAEDR"}, "B2": {"name": "PoCul1 (protein, UniProt S7Z946 1-764)", "chain": "MAPAMPQTPHKDDLTETWSFLEAGIDSVMLKLEEGVDMKTYMALYTAVHNFCTSQKAVANHQGLQAHRGAHLLGEELYKLLGEYLSRHLKAVLNESKGHAEEALLGFYIREWTRFTTAAKYVNHLFSYLNRHWVKREIDEGKKNVYDVYTLHLVKWKDDFFENVHDKVMDAVLNLIEKQRNGETIEQSQIKSIVDSFVSLGLDENDSKKSTLEVYRRYFQRPFIAATRTYYENESRQFVAENSVVEYMKKAETRLDEEKARVGLYLHPDVAKDLTDTCLDVLVTAHSTLLRDEFQVLLDNERQEDLARMYRLLSRIKDGLDPLRSTFENHVRRAGLAAVEKVASDSENFEPKLYVDALLQVHTRYQNLVDDAFNGDSEFVRSLDNACREFVNRNRICQSTSTKSPELLARYTDSLLKKGSKAAEESELEDMLVQIMTVFKYIEDKDVYQKFYSKMLAKRLVHVSSVSDDAETSMISKLKEACGFEYTNKLQRMFQDIQISKDLNASYKDWQDKVLDDDDRKRLVDAHYQILGTGFWPLQAPTSDFIAPIEINRTAERFSKFYFDKHNGRKLTWLWQLCKGEVKANYIKNAKVPYTFQVSTYQMGILLLFNEADTISYNDIQAATNLVPEILDPNLSIFLKARVLTISPEGSKPDPSTTFSLNYNFKNKKIKVNLNIQIKSEQKVEVDDTHKTIEEDRKLLLQSAIVRIMKSRKKMRHVQLVNEVIQQVKSRFPPQVPDIKKNIEALMEKDYIERLEGDEISYIA"}, "B3": {"name": "PDE_09763 (uncharacterized protein) (protein, UniProt S7ZWH9 1-267)", "chain": "MAVAGCRLQDAGCRLWVVGCGLRVAGREWRTAGHPLFLDVINQEHPMHRDPCRPVGPPARSARCVTVAQSRAPWCLALLRRVPPWPIEAALSSHGWIWRPGRISNTIEQQNSTRRASKAQWEMDDTCNCDIALSDLQYRSLGIQASKRPPTTCYPPLGESTSTEKWTVLSMFSGRSCLSRTEMWSTASMQTSHETLSYSATVDHHLEHRISLKLDWRTLSQLDNRGNGLCTLAVHTATVYPVVPKGSHFDWNNSSWEGSEFDWTYIY"}}, "target": "T1, PoAce1 fused with the TAP tag (HA-FLAG) at the C-terminus (Penicillium oxalicum) (UniProt S8AYJ0)", "T1 sequence": "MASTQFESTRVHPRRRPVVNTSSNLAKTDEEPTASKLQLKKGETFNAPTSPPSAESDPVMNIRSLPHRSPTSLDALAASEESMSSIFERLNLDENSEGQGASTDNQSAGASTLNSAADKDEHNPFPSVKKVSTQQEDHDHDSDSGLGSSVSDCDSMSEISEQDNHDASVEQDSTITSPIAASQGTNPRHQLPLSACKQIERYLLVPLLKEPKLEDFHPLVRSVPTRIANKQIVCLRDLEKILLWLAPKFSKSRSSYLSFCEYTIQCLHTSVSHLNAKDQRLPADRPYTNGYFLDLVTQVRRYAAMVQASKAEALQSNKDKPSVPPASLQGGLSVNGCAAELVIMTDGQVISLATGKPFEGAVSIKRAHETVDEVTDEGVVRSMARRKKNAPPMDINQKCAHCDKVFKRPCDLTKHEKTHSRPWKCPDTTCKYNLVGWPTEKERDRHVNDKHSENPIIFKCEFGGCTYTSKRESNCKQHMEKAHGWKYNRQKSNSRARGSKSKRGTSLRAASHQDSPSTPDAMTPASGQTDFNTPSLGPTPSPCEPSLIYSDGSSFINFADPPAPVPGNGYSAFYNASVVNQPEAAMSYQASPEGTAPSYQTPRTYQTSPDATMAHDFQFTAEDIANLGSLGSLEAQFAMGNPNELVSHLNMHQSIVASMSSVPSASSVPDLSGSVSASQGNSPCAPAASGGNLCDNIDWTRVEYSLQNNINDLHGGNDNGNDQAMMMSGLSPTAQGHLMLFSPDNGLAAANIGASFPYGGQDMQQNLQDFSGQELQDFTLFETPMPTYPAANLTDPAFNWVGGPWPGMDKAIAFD", "test": "affinity purification with mass spectrometry; TAP-MS with PoAce1-HA-FLAG as bait from mycelia grown in VMMG; anti-FLAG M2 gel, 3xFLAG peptide elution, then anti-HA resin, 8 M urea elution; LC-MS/MS; WT 114-2 as control; biological triplicates", "note": "These are yes or no findings as the source states them, for the method shown. Binding seen in cells or lysates may run through a third protein. Here binding means that the protein was enriched with, or labelled near, the bait; the list need not be complete. Tags and fused reporters may be left off the sequences shown.", "data": [{"molecule": "PoRbx1 (from UniProt S7ZFE3 1-118)", "values": [{"measurement": "binding", "result": "binds"}]}, {"molecule": "B1", "values": [{"measurement": "binding", "result": "binds"}]}, {"molecule": "B2", "values": [{"measurement": "binding", "result": "binds"}]}, {"molecule": "B3", "values": [{"measurement": "binding", "result": "binds"}]}]}
